Assay results published in the supplement of paper PMC10849652.
The other results are listed elsewhere or left out.

The chains behind the UniProt entries cited, without tags or fusion partners. Where a name states a change or a piece, a line headed by the entry shows the natural chain unless it says otherwise.
UniProt Q13595: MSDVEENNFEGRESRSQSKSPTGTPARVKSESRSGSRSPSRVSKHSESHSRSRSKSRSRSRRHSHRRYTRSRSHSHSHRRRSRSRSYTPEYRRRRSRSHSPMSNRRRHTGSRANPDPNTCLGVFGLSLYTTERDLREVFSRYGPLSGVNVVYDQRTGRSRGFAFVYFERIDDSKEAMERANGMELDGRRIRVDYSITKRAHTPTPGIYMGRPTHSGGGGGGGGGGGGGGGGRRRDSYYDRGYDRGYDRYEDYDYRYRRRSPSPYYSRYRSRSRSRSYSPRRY
UniProt O14656: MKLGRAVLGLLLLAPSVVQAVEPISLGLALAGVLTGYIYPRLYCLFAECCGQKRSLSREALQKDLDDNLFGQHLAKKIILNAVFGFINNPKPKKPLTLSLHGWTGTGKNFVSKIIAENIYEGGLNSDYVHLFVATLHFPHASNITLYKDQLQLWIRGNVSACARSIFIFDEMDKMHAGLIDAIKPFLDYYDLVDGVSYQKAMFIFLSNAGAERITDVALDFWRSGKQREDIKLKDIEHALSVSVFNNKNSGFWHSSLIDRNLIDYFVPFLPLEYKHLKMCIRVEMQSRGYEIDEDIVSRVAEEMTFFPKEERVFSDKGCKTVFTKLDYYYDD
UniProt Q9UKE5: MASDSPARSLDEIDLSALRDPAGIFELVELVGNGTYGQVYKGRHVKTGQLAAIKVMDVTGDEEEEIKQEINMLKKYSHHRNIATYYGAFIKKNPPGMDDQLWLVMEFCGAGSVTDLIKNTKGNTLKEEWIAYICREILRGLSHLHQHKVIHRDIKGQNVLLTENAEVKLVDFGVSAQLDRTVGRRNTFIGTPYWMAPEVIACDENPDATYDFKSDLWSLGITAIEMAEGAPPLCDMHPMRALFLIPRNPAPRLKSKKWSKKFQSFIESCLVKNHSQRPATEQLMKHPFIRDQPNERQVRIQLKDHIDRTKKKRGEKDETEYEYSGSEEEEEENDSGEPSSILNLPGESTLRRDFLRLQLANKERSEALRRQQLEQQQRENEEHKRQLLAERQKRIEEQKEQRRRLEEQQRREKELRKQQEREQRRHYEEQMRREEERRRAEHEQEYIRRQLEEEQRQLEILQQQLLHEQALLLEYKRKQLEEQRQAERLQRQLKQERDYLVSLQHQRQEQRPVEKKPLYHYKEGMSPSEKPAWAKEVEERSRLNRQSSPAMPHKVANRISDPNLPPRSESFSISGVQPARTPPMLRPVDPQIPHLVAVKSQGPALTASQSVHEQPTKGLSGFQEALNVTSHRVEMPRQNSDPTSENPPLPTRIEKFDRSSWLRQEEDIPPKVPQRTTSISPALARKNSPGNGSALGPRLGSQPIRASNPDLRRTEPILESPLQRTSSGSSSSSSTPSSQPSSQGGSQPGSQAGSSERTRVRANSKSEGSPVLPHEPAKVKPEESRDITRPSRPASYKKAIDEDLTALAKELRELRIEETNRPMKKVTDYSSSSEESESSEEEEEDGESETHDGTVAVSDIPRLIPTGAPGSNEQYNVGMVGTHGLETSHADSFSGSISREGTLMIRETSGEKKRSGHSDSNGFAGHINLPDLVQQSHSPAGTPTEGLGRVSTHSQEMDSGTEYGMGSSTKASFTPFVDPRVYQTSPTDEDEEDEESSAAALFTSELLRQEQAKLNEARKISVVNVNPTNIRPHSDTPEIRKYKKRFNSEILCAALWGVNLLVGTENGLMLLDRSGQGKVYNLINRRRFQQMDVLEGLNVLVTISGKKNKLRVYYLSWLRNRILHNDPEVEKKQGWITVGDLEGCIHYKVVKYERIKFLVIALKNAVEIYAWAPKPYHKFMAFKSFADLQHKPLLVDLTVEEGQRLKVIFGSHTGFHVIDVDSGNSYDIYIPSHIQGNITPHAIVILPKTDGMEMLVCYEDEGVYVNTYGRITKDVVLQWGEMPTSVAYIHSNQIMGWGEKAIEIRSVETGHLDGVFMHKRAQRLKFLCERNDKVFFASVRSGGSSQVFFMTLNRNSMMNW
UniProt Q9NWD8: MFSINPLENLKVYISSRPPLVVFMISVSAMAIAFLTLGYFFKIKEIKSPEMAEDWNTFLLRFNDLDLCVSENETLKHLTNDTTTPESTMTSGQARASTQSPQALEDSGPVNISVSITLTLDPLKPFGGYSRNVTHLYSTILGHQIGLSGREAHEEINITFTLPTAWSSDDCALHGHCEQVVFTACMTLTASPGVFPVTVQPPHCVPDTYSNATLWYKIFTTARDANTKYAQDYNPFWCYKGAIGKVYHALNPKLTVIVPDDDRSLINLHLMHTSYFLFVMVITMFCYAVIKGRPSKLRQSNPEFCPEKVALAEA
UniProt Q9H497: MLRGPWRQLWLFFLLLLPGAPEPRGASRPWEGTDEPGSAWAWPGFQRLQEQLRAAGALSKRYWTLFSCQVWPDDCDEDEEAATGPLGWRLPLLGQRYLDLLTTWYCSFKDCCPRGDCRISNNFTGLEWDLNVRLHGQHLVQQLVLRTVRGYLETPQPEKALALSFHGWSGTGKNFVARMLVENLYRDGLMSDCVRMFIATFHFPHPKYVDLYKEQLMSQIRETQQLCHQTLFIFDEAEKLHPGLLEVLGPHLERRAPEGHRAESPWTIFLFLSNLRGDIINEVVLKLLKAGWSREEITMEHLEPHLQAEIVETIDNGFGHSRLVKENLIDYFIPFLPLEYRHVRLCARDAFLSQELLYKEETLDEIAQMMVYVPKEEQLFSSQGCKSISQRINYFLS
UniProt Q9C0C2: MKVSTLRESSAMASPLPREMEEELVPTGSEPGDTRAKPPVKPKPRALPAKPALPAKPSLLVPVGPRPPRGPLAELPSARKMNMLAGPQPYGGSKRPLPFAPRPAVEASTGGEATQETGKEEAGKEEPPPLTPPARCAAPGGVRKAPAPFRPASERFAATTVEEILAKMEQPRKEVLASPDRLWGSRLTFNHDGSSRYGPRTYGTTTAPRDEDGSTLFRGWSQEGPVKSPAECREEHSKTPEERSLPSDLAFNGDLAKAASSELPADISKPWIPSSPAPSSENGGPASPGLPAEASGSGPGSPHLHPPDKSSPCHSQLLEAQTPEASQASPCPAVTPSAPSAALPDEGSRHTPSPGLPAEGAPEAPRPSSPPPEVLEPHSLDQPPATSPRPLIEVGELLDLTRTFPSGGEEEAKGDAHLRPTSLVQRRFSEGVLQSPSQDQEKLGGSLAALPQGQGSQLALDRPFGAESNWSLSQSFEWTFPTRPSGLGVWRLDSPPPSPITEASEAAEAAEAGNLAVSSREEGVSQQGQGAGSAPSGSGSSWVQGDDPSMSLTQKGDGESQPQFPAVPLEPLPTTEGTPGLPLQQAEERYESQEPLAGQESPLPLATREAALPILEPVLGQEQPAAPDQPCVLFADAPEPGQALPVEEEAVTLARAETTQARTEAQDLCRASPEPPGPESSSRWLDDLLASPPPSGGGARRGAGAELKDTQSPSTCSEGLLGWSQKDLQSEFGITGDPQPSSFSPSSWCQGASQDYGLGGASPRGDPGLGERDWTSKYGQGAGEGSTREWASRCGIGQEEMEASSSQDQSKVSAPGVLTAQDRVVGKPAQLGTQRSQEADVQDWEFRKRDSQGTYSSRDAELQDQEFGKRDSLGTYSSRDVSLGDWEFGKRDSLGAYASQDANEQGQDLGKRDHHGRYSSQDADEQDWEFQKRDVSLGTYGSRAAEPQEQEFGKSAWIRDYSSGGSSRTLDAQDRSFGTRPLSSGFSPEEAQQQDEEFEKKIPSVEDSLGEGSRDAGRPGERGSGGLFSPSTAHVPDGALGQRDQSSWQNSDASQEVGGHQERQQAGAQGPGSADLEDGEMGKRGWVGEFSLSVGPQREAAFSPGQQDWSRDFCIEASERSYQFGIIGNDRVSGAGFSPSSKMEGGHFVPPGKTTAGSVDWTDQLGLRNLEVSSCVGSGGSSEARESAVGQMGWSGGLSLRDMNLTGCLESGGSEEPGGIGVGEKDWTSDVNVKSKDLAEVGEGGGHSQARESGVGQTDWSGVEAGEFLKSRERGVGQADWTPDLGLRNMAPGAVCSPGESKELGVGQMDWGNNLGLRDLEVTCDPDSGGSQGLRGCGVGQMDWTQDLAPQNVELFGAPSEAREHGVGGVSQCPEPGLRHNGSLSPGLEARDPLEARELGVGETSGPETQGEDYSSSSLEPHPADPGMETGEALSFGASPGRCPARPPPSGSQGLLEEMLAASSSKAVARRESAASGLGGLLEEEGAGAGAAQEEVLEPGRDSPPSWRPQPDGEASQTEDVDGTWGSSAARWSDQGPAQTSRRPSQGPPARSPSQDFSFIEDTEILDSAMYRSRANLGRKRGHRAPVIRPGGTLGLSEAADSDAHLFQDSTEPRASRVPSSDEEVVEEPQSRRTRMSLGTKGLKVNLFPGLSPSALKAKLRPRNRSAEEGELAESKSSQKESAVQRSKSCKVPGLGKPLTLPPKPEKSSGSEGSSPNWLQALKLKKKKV
UniProt Q9NVV0: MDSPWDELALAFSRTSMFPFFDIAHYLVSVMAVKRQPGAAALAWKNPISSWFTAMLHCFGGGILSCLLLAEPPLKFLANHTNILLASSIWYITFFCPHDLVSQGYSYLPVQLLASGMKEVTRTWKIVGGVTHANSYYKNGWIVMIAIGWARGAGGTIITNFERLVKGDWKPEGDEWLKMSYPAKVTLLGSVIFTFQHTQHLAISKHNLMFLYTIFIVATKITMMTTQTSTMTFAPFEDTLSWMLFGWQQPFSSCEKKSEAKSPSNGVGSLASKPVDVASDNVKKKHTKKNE
UniProt Q13472: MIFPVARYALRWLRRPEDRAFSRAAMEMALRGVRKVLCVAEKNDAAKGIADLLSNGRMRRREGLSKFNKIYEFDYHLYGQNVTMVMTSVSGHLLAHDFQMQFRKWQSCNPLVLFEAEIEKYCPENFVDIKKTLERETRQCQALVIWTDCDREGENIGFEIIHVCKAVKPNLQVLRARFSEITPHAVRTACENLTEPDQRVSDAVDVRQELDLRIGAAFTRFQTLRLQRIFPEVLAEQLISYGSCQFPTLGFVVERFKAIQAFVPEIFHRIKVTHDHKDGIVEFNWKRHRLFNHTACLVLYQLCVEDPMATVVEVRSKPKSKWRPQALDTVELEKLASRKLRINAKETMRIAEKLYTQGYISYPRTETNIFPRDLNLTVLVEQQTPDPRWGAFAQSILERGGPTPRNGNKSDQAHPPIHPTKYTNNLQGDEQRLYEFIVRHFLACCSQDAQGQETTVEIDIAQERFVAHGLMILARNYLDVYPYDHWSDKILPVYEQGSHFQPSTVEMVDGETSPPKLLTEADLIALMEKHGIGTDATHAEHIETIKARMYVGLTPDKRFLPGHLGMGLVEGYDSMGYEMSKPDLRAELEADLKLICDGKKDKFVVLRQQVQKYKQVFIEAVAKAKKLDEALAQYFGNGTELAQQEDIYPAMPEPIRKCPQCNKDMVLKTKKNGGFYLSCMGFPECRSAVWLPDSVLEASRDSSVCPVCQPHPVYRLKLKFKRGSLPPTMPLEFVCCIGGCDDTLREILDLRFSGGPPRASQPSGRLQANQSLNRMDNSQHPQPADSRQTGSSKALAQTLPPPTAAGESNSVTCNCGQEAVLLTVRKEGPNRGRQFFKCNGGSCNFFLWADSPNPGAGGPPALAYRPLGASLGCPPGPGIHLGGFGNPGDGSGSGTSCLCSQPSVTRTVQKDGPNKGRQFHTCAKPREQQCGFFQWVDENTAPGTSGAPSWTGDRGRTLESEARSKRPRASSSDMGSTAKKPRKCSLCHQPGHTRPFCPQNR
UniProt Q9NYL9: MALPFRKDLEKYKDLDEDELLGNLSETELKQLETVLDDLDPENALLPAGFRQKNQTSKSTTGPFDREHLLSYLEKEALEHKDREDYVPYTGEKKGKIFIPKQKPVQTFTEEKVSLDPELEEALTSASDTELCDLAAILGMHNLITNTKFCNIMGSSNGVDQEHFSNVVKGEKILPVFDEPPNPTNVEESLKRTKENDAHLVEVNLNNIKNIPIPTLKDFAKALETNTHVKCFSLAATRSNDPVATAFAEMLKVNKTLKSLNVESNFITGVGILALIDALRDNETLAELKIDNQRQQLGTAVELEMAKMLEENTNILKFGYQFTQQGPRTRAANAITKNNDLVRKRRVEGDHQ
UniProt Q16890: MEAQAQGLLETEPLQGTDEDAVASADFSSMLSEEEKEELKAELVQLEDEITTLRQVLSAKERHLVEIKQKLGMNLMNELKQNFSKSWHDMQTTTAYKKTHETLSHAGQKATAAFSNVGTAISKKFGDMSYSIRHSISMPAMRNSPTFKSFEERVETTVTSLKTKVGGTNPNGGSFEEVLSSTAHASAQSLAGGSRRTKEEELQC
UniProt Q9BUB7: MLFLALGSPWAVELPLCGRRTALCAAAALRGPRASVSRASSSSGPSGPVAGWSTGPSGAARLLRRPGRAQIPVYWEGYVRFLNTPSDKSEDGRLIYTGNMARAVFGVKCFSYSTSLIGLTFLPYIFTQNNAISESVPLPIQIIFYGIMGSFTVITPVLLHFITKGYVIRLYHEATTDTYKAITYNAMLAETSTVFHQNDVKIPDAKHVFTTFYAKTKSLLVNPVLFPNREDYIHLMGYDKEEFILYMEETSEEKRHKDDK

Experiments:
Assay in all cases: log2 fold change, soluble protein after heating vs DMSO (PISA); higher = thermal stabilisation; K562 lysate, 10 uM; active = over 0.2 and 3.5 SD of the protein, either way, in both replicates (recomputed)
[1] = compound: NCC(=O)Nc1ccc(-n2nc(C(F)(F)F)cc2-c2ccc3c(ccc4ccccc43)c2)cc1
Method in brief: (§1)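 Thermal stability, expressed as log-two fold change relative to solvent controls, is given from duplicates. Crude K562 extract in PBS pH 7.4 with 1 mM MgCl2, at 1 mg/mL protein, was treated with 10 μM compound for 30 min and heated in aliquots for 3 min across 48°C-58°C. After pooling, adjustment to 0.5% NP-40 at 4°C and centrifugation at 21,000xg for 90 min, supernatant protein was measured by TMTpro 16plex LC-MS/MS with channel sums equalised.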

[2] = compound: O=C(CCCCCCC(=O)Nc1ccccc1)NO [vorinostat]
Method in brief: as §1

[3] = compound: O=C(O)c1ccc2c(c1)nc(Nc1cccc(Cl)c1)c1ccncc12 [silmitasertib]
Method in brief: as §1

[4] = compound: O=C1NC(=O)C(c2cnc3ccccn23)=C1c1cn2c3c(cc(F)cc13)CN(C(=O)N1CCCCC1)CC2
Method in brief: as §1

[5] = compound: c1cn2cc(-c3ccc4cn[nH]c4c3)nc(Nc3ccc(N4CCOCC4)cc3)c2n1 [entospletinib]
Method in brief: as §1

Target | log2 fold change [1] | log2 fold change [2] | log2 fold change [3] | log2 fold change [4] | log2 fold change [5]
TMEM19 (UniProt Q96HH6) | inactive: -0.231 | inactive: -0.024 | inactive: 0.136 | inactive: -0.165 | inactive: 0.081
TOP2A isoform 4 (UniProt P11388) | inactive: 0.016 | inactive: -0.044 | inactive: 0.051 | inactive: -0.015 | inactive: 0.044
TPM1 isoform 4 (UniProt P09493) | inactive: -0.053 | inactive: 0.052 | inactive: -0.03 | inactive: -0.041 | inactive: 0.006
TRA2A (UniProt Q13595) | inactive: 0.009 | active: 0.568 | inactive: -0.151 | inactive: 0.005 | inactive: -0.102
TOR1A (UniProt O14656) | inactive: -0.007 | inactive: 0.11 | inactive: -0.019 | inactive: -0.009 | inactive: 0.002
TMEM63A (UniProt O94886) | inactive: 0.029 | inactive: 0.073 | inactive: 0.026 | inactive: -0.013 | inactive: -0.009
TNIK isoform 4 (UniProt Q9UKE5) | inactive: -0.019 | inactive: -0.135 | inactive: 0.004 | inactive: -0.114 | inactive: 0.208
TPP1 (UniProt O14773) | inactive: 0.008 | inactive: 0.078 | inactive: -0.004 | inactive: -0.002 | inactive: -0.003
TMEM248 (UniProt Q9NWD8) | inactive: -0.081 | inactive: 0.06 | inactive: 0.039 | inactive: -0.014 | inactive: -0.025
TMPO (UniProt P42166) | inactive: 0.037 | active: -0.569 | inactive: -0.057 | inactive: 0.009 | inactive: -0.029
TMEM87B (UniProt Q96K49) | inactive: -0.024 | inactive: 0.018 | inactive: 0.026 | inactive: -0.037 | inactive: -0.097
TNIP1 (UniProt Q15025) | inactive: -0.045 | inactive: 0.093 | inactive: -0.045 | inactive: 0.015 | inactive: 0.01
TNFAIP2 (UniProt Q03169) | inactive: 0.13 | inactive: 0.133 | inactive: -0.051 | inactive: 0.057 | inactive: 0.025
TOR3A (UniProt Q9H497) | inactive: 0.011 | inactive: 0.048 | inactive: -0.002 | inactive: -0.016 | inactive: 0.02
TNRC6B (UniProt Q9UPQ9) | inactive: 0.004 | inactive: 0.003 | inactive: -0.062 | inactive: -0.001 | inactive: -0.029
TOR2A (UniProt Q5JU69) | inactive: -0.012 | inactive: -0.004 | inactive: 0.033 | inactive: 0.03 | inactive: 0.062
TNKS1BP1 (UniProt Q9C0C2) | inactive: 0.031 | inactive: -0.018 | inactive: 0.009 | inactive: -0.004 | inactive: -0.009
TMEM189-UBE2V1 (UniProt I3L0A0) | inactive: -0.047 | inactive: 0.146 | inactive: -0.053 | inactive: 0.011 | inactive: 0.001
TMEM38B (UniProt Q9NVV0) | inactive: -0.011 | inactive: 0.116 | inactive: 0.014 | inactive: 0.013 | inactive: -0.055
TOP3A (UniProt Q13472) | inactive: 0.024 | inactive: -0.173 | inactive: 0.15 | inactive: -0.035 | inactive: 0.052
TMOD3 (UniProt Q9NYL9) | inactive: 0.004 | inactive: -0.002 | inactive: 0.026 | inactive: 0.016 | inactive: 0
TPD52L1 (UniProt Q16890) | inactive: 0.014 | inactive: 0.185 | inactive: -0.049 | inactive: 0.02 | inactive: -0.002
TMEM70 (UniProt Q9BUB7) | inactive: -0.081 | inactive: 0.122 | inactive: 0.017 | inactive: -0.108 | inactive: 0.015
TMEM192 (UniProt Q8IY95) | inactive: 0.005 | inactive: 0.123 | inactive: -0.019 | inactive: -0.025 | inactive: 0.004

As entered above.
Value for TMEM38B (UniProt Q9NVV0) under log2 fold change [3]: inactive: 0.014
Value for TMEM87B (UniProt Q96K49) under log2 fold change [3]: inactive: 0.026
